Assay results from publication PMC5484543.
These are yes or no findings as the source states them, for the method shown. Binding seen in cells or lysates may run through a third protein. Here binding means that the protein was enriched with, or labelled near, the bait; the list need not be complete. Tags and fused reporters may be left off the sequences shown.

T1: 3xFLAG-B12 (UniProt Q9NXW2)
T1 sequence: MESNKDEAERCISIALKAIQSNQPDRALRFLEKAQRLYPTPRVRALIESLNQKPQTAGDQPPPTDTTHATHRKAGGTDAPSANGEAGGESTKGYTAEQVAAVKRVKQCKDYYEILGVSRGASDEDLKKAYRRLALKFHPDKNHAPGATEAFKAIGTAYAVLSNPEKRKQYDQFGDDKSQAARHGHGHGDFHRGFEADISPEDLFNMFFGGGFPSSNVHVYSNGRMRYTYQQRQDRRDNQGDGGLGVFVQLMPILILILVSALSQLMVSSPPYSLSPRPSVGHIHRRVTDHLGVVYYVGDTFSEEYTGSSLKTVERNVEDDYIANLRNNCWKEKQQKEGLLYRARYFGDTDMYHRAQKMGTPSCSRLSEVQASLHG


Molecular target: T1, 3xFLAG-B12
Assay: affinity purification with mass spectrometry; 3xFLAG-B12 stable Flp-In 293 T-REx cells; digitonin-permeabilised, pellet lysed in 50 mM Hepes pH 7.5, 150 mM NaCl, 1% deoxy Big CHAP; anti-FLAG M2 antibody and Protein G magnetic beads, 4°C; eluted with 3xFLAG peptide; shot gun mass spectrometry; parental cells as control

Binder | binding
Erlin1 (endogenous) (protein, UniProt O75477 1-348) MNMTQARVLVAAVVGLVAVLLYASIHKIEEGHLAVYYRGGALLTSPSGPGYHIMLPFITTFRSVQTTLQTDEVKNVPCGTSGGVMIYIDRIEVVNMLAPYAVFDIVRNYTADYDKTLIFNKIHHELNQFCSAHTLQEVYIELFDQIDENLKQALQKDLNLMAPGLTIQAVRVTKPKIPEAIRRNFELMEAEKTKLLIAAQKQKVVEKEAETERKKAVIEAEKIAQVAKIRFQQKVMEKETEKRISEIEDAAFLAREKAKADAEYYAAHKYATSNKHKLTPEYLELKKYQAIASNSKIYFGSNIPNMFVDSSCALKYSDIRTGRESSLPSKEALEPSGENVIQNKESTG | binds
CLCC1 (protein, UniProt Q96S66 19-551) HDDDWIDPTDMLNYDAASGTMRKSQAKYGISGEKDVSPDLSCADEISECYHKLDSLTYKIDECEKKKREDYESQSNPVFRRYLNKILIEAGKLGLPDENKGDMHYDAEIILKRETLLEIQKFLNGEDWKPGALDDALSDILINFKFHDFETWKWRFEDSFGVDPYNVLMVLLCLLCIVVLVATELWTYVRWYTQLRRVLIISFLFSLGWNWMYLYKLAFAQHQAEVAKMEPLNNVCAKKMDWTGSIWEWFRSSWTYKDDPCQKYYELLLVNPIWLVPPTKALAVTFTTFVTEPLKHIGKGTGEFIKALMKEIPALLHLPVLIIMALAILSFCYGAGKSVHVLRHIGGPESEPPQALRPRDRRRQEEIDYRPDGGAGDADFHYRGQMGPTEQGPYAKTYEGRREILRERDVDLRFQTGNKSPEVLRAFDVPDAEAREHPTVVPSHKSPVLDTKPKETGGILGEGTPKESSTESSQSAKPVSGQDTSGNTEGSPAAEKAQLKSEAAGSPDQGSTYSPARGVAGPRGQDPVSSPCG | binds
RPN1 (protein, UniProt P04843 24-607) ASSEAPPLINEDVKRTVDLSSHLAKVTAEVVLAHLGGGSTSRATSFLLALEPELEARLAHLGVQVKGEDEEENNLEVRETKIKGKSGRFFTVKLPVALDPGAKISVIVETVYTHVLHPYPTQITQSEKQFVVFEGNHYFYSPYPTKTQTMRVKLASRNVESYTKLGNPTRSEDLLDYGPFRDVPAYSQDTFKVHYENNSPFLTITSMTRVIEVSHWGNIAVEENVDLKHTGAVLKGPFSRYDYQRQPDSGISSIRSFKTILPAAAQDVYYRDEIGNVSTSHLLILDDSVEMEIRPRFPLFGGWKTHYIVGYNLPSYEYLYNLGDQYALKMRFVDHVFDEQVIDSLTVKIILPEGAKNIEIDSPYEISRAPDELHYTYLDTFGRPVIVAYKKNLVEQHIQDIVVHYTFNKVLMLQEPLLVVAAFYILFFTVIIYVRLDFSITKDPAAEARMKVACITEQVLTLVNKRIGLYRHFDETVNRYKQSRDISTLNSGKKSLETEHKALTSEIALLQSRLKTEGSDLCDRVSEMQKLDAQVKELVLKSAVEAERLVAGKLKKDTYIENEKLISGKRQELVTKIDHILDAL | binds
PTPLAD1 (protein, UniProt Q9P035 1-362) MENQVLTPHVYWAQRHRELYLRVELSDVQNPAISITENVLHFKAQGHGAKGDNVYEFHLEFLDLVKPEPVYKLTQRQVNITVQKKVSQWWERLTKQEKRPLFLAPDFDRWLDESDAEMELRAKEEERLNKLRLESEGSPETLTNLRKGYLFMYNLVQFLGFSWIFVNLTVRFCILGKESFYDTFHTVADMMYFCQMLAVVETINAAIGVTTSPVLPSLIQLLGRNFILFIIFGTMEEMQNKAVVFFVFYLWSAIEIFRYSFYMLTCIDMDWKVLTWLRYTLWIPLYPLGCLAEAVSVIQSIPIFNETGRFSFTLPYPVKIKVRFSFFLQIYLIMIFLGLYINFRHLYKQRRRRYGQKKKKIH | binds
BAP31 (protein, UniProt P51572 1-246) MSLQWTAVATFLYAEVFVVLLLCIPFISPKRWQKIFKSRLVELLVSYGNTFFVVLIVILVLLVIDAVREIRKYDDVTEKVNLQNNPGAMEHFHMKLFRAQRNLYIAGFSLLLSFLLRRLVTLISQQATLLASNEAFKKQAESASEAAKKYMEENDQLKKGAAVDGGKLDVGNAEVKLEEENRSLKADLQKLKDELASTKQKLEKAENQVLAMRKQSEGLTKEYDRLLEEHAKLQAAVDGPMDKKEE | binds
HM13 (protein, UniProt Q8TCT9 1-377) MDSALSDPHNGSAEAGGPTNSTTRPPSTPEGIALAYGSLLLMALLPIFFGALRSVRCARGKNASDMPETITSRDAARFPIIASCTLLGLYLFFKIFSQEYINLLLSMYFFVLGILALSHTISPFMNKFFPASFPNRQYQLLFTQGSGENKEEIINYEFDTKDLVCLGLSSIVGVWYLLRKHWIANNLFGLAFSLNGVELLHLNNVSTGCILLGGLFIYDVFWVFGTNVMVTVAKSFEAPIKLVFPQDLLEKGLEANNFAMLGLGDVVIPGIFIALLLRFDISLKKNTHTYFYTSFAAYIFGLGLTIFIMHIFKHAQPALLYLVPACIGFPVLVALAKGEVTEMFSYEESNPKDPAAVTESKEGTEASASKGLEKKEK | binds
EMC1 (protein, UniProt Q8N766 23-993) YEDQVGKFDWRQQYVGKVKFASLEFSPGSKKLVVATEKNVIAALNSRTGEILWRHVDKGTAEGAVDAMLLHGQDVITVSNGGRIMRSWETNIGGLNWEITLDSGSFQALGLVGLQESVRYIAVLKKTTLALHHLSSGHLKWVEHLPESDSIHYQMVYSYGSGVVWALGVVPFSHVNIVKFNVEDGEIVQQVRVSTPWLQHLSGACGVVDEAVLVCPDPSSRSLQTLALETEWELRQIPLQSLDLEFGSGFQPRVLPTQPNPVDASRAQFFLHLSPSHYALLQYHYGTLSLLKNFPQTALVSFATTGEKTVAAVMACRNEVQKSSSSEDGSMGSFSEKSSSKDSLACFNQTYTINLYLVETGRRLLDTTITFSLEQSGTRPERLYIQVFLKKDDSVGYRALVQTEDHLLLFLQQLAGKVVLWSREESLAEVVCLEMVDLPLTGAQAELEGEFGKKADGLLGMFLKRLSSQLILLQAWTSHLWKMFYDARKPRSQIKNEINIDTLARDEFNLQKMMVMVTASGKLFGIESSSGTILWKQYLPNVKPDSSFKLMVQRTTAHFPHPPQCTLLVKDKESGMSSLYVFNPIFGKWSQVAPPVLKRPILQSLLLPVMDQDYAKVLLLIDDEYKVTAFPATRNVLRQLHELAPSIFFYLVDAEQGRLCGYRLRKDLTTELSWELTIPPEVQRIVKVKGKRSSEHVHSQGRVMGDRSVLYKSLNPNLLAVVTESTDAHHERTFIGIFLIDGVTGRIIHSSVQKKAKGPVHIVHSENWVVYQYWNTKARRNEFTVLELYEGTEQYNATAFSSLDRPQLPQVLQQSYIFPSSISAMEATITERGITSRHLLIGLPSGAILSLPKALLDPRRPEIPTEQSREENLIPYSPDVQIHAERFINYNQTVSRMRGIYTAPSGLESTCLVVAYGLDIYQTRVYPSKQFDVLKDDYDYVLISSVLFGLVFATMITKRLAQVKLLNRAWR | binds

Results, then the binder that gave them:

binding | Binder
binds | COPB2 (protein, UniProt P35606 1-906) MPLRLDIKRKLTARSDRVKSVDLHPTEPWMLASLYNGSVCVWNHETQTLVKTFEVCDLPVRAAKFVARKNWVVTGADDMQIRVFNYNTLERVHMFEAHSDYIRCIAVHPTQPFILTSSDDMLIKLWDWDKKWSCSQVFEGHTHYVMQIVINPKDNNQFASASLDRTIKVWQLGSSSPNFTLEGHEKGVNCIDYYSGGDKPYLISGADDRLVKIWDYQNKTCVQTLEGHAQNVSCASFHPELPIIITGSEDGTVRIWHSSTYRLESTLNYGMERVWCVASLRGSNNVALGYDEGSIIVKLGREEPAMSMDANGKIIWAKHSEVQQANLKAMGDAEIKDGERLPLAVKDMGSCEIYPQTIQHNPNGRFVVVCGDGEYIIYTAMALRNKSFGSAQEFAWAHDSSEYAIRESNSIVKIFKNFKEKKSFKPDFGAESIYGGFLLGVRSVNGLAFYDWDNTELIRRIEIQPKHIFWSDSGELVCIATEESFFILKYLSEKVLAAQETHEGVTEDGIEDAFEVLGEIQEIVKTGLWVGDCFIYTSSVNRLNYYVGGEIVTIAHLDRTMYLLGYIPKDNRLYLGDKELNIISYSLLVSVLEYQTAVMRRDFSMADKVLPTIPKEQRTRVAHFLEKQGFKQQALTVSTDPEHRFELALQLGELKIAYQLAVEAESEQKWKQLAELAISKCQFGLAQECLHHAQDYGGLLLLATASGNANMVNKLAEGAERDGKNNVAFMSYFLQGKVDACLELLIRTGRLPEAAFLARTYLPSQVSRVVKLWRENLSKVNQKAAESLADPTEYENLFPGLKEAFVVEEWVKETHADLWPAKQYPLVTPNEERNVMEEGKDFQPSRSTAQQELDGKPASPTPVIVASHTANKEEKSLLELEVDLDNLELEDIDTTDINLDEDILDD
binds | UBAC2 (protein, UniProt Q8NBM4 36-344) HCQKLFVYDLHAVKNDFQIWRLICGRIICLDLKDTFCSSLLIYNFRIFERRYGSRKFASFLLGSWVLSALFDFLLIEAMQYFFGITAASNLPSGFLAPVFALFVPFYCSIPRVQVAQILGPLSITNKTLIYILGLQLFTSGSYIWIVAISGLMSGLCYDSKMFQVHQVLCIPSWMAKFFSWTLEPIFSSSEPTSEARIGMGATLDIQRQQRMELLDRQLMFSQFAQGRRQRQQQGGMINWNRLFPPLRQRQNVNYQGGRQSEPAAPPLEVSEEQVARLMEMGFSRGDALEALRASNNDLNVATNFLLQH
binds | SLC25A3 (protein, UniProt Q00325 50-362) AVEEQYSCDYGSGRFFILCGLGGIISCGTTHTALVPLDLVKCRMQVDPQKYKGIFNGFSVTLKEDGVRGLAKGWAPTFLGYSMQGLCKFGFYEVFKVLYSNMLGEENTYLWRTSLYLAASASAEFFADIALAPMEAAKVRIQTQPGYANTLRDAAPKMYKEEGLKAFYKGVAPLWMRQIPYTMMKFACFERTVEALYKFVVPKPRSECSKPEQLVVTFVAGYIAGVFCAIVSHPADSVVSVLNKEKGSSASLVLKRLGFKGVWKGLFARIIMIGTLTALQWFIYDSVKVYFRLPRPPPPEMPESLKKKLGLTQ
binds | NONO (protein, UniProt Q15233 1-471) MQSNKTFNLEKQNHTPRKHHQHHHQQQHHQQQQQQPPPPPIPANGQQASSQNEGLTIDLKNFRKPGEKTFTQRSRLFVGNLPPDITEEEMRKLFEKYGKAGEVFIHKDKGFGFIRLETRTLAEIAKVELDNMPLRGKQLRVRFACHSASLTVRNLPQYVSNELLEEAFSVFGQVERAVVIVDDRGRPSGKGIVEFSGKPAARKALDRCSEGSFLLTTFPRPVTVEPMDQLDDEEGLPEKLVIKNQQFHKEREQPPRFAQPGSFEYEYAMRWKALIEMEKQQQDQVDRNIKEAREKLEMEMEAARHEHQVMLMRQDLMRRQEELRRMEELHNQEVQKRKQLELRQEEERRRREEEMRRQQEEMMRRQQEGFKGTFPDAREQEIRMGQMAMGGAMGINNRGAMPPAPVPAGTPAPPGPATMMPDGTLGLTPPTTERFGQAATMEGIGAIGGTPPAFNRAAPGAEFAPNKRRRY
